Assay results published in PMC10746710.

Protein sequences, listed by entry. Tags and fused reporters are not part of them. Lines headed by an entry give the natural chain unless they say otherwise; changes in a name come on top. Chains listed by the source or under a name are the forms on record and can include a tag or linker.
UniProt Q8N6T7: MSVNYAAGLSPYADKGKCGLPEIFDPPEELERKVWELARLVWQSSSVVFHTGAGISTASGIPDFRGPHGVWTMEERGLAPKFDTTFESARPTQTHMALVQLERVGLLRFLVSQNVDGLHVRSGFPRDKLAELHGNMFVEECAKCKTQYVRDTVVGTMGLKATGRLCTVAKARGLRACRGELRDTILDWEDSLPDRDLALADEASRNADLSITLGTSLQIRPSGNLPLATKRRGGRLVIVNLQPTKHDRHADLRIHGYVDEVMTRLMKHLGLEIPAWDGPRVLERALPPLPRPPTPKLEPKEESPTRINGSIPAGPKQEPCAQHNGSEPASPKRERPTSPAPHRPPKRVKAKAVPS
HA-tagged RORγt, expressed in HEK293T cells (P51449-2, form named): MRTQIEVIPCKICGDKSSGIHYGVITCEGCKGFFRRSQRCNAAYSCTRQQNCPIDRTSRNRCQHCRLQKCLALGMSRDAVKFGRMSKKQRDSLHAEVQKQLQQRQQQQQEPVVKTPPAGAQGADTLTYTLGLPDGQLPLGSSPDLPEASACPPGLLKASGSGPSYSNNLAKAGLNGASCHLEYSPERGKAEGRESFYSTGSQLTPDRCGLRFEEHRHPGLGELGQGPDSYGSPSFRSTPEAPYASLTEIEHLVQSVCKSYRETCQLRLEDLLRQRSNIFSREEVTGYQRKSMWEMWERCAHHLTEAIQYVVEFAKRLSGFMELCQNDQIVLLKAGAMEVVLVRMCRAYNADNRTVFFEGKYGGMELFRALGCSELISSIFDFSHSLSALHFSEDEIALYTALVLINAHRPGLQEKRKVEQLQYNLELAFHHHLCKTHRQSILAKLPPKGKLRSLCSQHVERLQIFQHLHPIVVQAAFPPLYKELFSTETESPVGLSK

Experiments:
[1] = molecular target: SIRT6 co-expressed with RORγt or RORγt-ΔPY in HEK293T cells (UniProt Q8N6T7); test: co-IP; HEK293T cells transfected with combinations of plasmids (SIRT6, RORγt, RORγt-ΔPY); IP with anti-Flag, immunoblot with anti-HA or anti-Flag
SIRT6-ΔN (43-355aa) = SIRT6-ΔN (43-355aa) (UniProt Q8N6T7); test: co-IP; HEK293T cells transfected with Flag-tagged SIRT6 or truncations plus HA-tagged RORγt, 24 h; IP with antibody to Flag

Row | Substance | binding [1] | binding (SIRT6-ΔN (43-355aa))
1 | RORγt-ΔPY (deletion of amino acids 476-479 of the PPXY motif) (from UniProt P51449-2) | no binding | –
2 | HA-tagged RORγt, expressed in HEK293T cells (from UniProt P51449-2 1-497) | – | binds

No constants are given. Whether binding was seen depends on the method and setting. Binding seen in cells or lysates may run through a third protein. For some assays here: Binding calls can cover weak binding; strength is not graded here.
